Publication PMC4819193
Results are given in words; binding and its absence hold for the method and conditions named. Binding calls can cover weak binding; strength is not graded here.

The chains behind the UniProt entries cited, without tags or fusion partners. Where a name states a change or a piece, a line headed by the entry shows the natural chain unless it says otherwise.
UniProt F8SNQ6: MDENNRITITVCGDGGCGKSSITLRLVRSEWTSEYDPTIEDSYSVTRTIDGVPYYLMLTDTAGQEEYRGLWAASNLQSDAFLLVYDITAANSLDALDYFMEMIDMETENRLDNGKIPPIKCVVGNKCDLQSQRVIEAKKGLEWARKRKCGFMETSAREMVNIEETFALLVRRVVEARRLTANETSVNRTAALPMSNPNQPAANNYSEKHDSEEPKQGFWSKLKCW
UniProt A0A0U2WZR5: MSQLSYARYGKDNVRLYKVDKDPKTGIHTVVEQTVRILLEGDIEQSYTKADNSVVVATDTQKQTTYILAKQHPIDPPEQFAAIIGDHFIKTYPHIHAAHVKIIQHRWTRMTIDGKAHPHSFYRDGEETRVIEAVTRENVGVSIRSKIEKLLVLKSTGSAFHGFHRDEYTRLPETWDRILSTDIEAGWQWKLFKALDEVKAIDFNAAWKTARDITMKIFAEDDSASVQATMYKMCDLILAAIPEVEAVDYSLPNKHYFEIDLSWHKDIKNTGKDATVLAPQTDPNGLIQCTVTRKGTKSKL

Biological target: GST-Clg2p (Curvularia lunata) (UniProt F8SNQ6)
Assay: pull-down; both purified

In the case of His-ClUrase (from UniProt A0A0U2WZR5), the binding is reported as “binds”.
